# Results from one PubChem assay

By UniProt entry, the sequences of proteins in these tests, tags left out.
UniProt O94782, whole entry, looked up, target on record: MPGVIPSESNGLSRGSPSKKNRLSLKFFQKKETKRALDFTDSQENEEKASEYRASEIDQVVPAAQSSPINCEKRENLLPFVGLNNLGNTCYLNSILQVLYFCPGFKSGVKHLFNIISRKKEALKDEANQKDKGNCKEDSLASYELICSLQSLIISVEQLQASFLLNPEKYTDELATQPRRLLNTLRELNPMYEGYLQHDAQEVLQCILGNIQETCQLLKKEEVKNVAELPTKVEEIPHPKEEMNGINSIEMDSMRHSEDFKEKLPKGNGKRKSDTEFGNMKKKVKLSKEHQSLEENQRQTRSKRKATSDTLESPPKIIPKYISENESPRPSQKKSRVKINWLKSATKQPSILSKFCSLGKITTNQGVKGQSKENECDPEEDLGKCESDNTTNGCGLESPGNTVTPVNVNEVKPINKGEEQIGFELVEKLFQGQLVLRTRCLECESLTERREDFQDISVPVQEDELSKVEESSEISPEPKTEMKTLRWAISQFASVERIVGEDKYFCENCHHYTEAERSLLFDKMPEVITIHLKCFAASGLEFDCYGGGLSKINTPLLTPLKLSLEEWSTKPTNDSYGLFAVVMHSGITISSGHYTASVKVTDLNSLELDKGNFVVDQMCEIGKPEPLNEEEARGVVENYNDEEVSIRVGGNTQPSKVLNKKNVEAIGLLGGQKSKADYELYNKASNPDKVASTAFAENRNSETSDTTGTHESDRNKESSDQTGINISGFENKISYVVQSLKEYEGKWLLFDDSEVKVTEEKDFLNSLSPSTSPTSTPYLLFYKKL

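Fluorescent signal from cleaved Ub-rhodamine measures how much the isolated USP1/UAF1 deubiquitinase is inhibited, recorded over roughly six minutes.
Compounds were titrated over 13 concentrations from about 0.0037 µM up to roughly 110 µM, the top dose varying by compound.
The value is the fitted AC50 from the dose-response series, and a lower number means a more potent inhibitor.
Calls come from curve class and fitted log AC50: scores 40-100 are active, 1-39 inconclusive (as here, weak, partial or poorly fitted curves), and 0 inactive.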

Values are in µM.
Every entry below has the call inconclusive.
Only part of the assay is shown, chiefly results filed as inconclusive.
A potency from a partial, single-point or poor curve is only a rough figure.
Some entries filed as inconclusive have a full curve.
Activity scores are not listed here.
An entry listed twice with the same setting is a separate test.

Compound | Potency (µM) | curve as filed
COc1ccc(/C=C/C(=O)c2ccc(C)s2)cc1 | 14.13 | inhibitor, partial curve
Cc1oncc1C(=O)Nc1ccc(C(F)(F)F)cc1 | 31.62 | inhibitor, partial curve, poor fit
C/C(=C\CO)CCC(C)CCCC(C)CCCC(C)C (stereo not drawn) | 12.59 | inhibitor, full curve, poor fit
CCC(C(=O)O)C1CCC(C)C(C(C)C(O)C(C)C(=O)C(CC)C2OC3(C=CC(O)[C@@]4(CC[C@](C)(C5CC[C@@](O)(CC)C(C)O5)O4)O3)C(C)CC2C)O1 (stereo partly drawn) | 35.48 | inhibitor, single point
C[N+]1(C)CCc2cc3c(cc2[C@@H]1[C@@H]1C(=O)Oc2c1ccc1c2OCO1)OCO3 | 56.23 | inhibitor, partial curve, poor fit
O=c1cc(-c2ccc(O)c(O)c2)oc2cc(O)cc(O)c12 | 35.48 | inhibitor, partial curve
C[C@]12CC[C@@H]3c4ccc(O)cc4CC[C@H]3[C@@H]1CCC2OC(=O)CCC1CCCC1 (stereo partly drawn) | 31.62 | inhibitor, partial curve
CC1OC(=O)C(C(C)C)NC(=O)C(C(C)C)OC(=O)C(C(C)C)NC(=O)C(C)OC(=O)C(C(C)C)NC(=O)C(C(C)C)OC(=O)C(C(C)C)NC(=O)C(C)OC(=O)C(C(C)C)NC(=O)C(C(C)C)OC(=O)C(C(C)C)NC1=O (stereo not drawn) | 89.13 | inhibitor, partial curve, poor fit
Cc1ccc(S(=O)(=O)/C=C\C#N)cc1 | 25.12 | inhibitor, full curve, poor fit
CCc1ccc2c(O)c3c(cc2c1C(=O)OC)C(=O)c1c(O)ccc(O)c1C3=O | 63.1 | inhibitor, partial curve, poor fit
CSc1ccc2c(c1)[C@H](N1CCN(C)CC1)Cc1ccccc1S2 | 31.62 | inhibitor, partial curve
C=C(C)C1CC=C(C(=O)O)CC1 (stereo not drawn) | 44.67 | inhibitor, partial curve, poor fit
[Hg+][c]1ccccc1 | 56.23 | inhibitor, partial curve, poor fit
Cc1cnc(CNc2ncnc3ccc(-c4ccccc4C#N)cc23)cn1 | 79.43 | inhibitor, partial curve, poor fit
COc1c2c(cc3occ(-c4ccc5c(c4)OCO5)c(=O)c13)OC(C)(C)C=C2 | 19.95 | inhibitor, full curve
COc1cc(/C=C/C(=O)c2cccs2)cc(OC)c1OC | 39.81 | inhibitor, partial curve, poor fit
CC1CCC(O)C/C1=C\C=C1/CCCC2(C)C1CCC2C(C)/C=C/C(C)C(C)C (stereo not drawn) | 28.18 | inhibitor, full curve
O=C(Nc1ccccc1)N[C@H]1C[C@H](C(=O)O)Nc2cc(Cl)cc(Cl)c21 | 44.67 | inhibitor, partial curve, poor fit
CC1(C)CC[C@]2(C(=O)O)C(O)C[C@@]3(C)C(=CCC4[C@@]5(C)CCC(O)C(C)(C)C5CC[C@@]43C)C2C1 (stereo partly drawn) | 63.1 | inhibitor, partial curve, poor fit
CCCCCCCC/C=C\CCCCCCCC(=O)NCCO | 44.67 | inhibitor, partial curve
CCOC(=O)/C=C(C)/C=C/C=C(C)/C=C/c1c(C)cc(OC)c(C)c1C | 6.31 | inhibitor, partial curve, poor fit
Cc1cc(O)c2c(c1)C(=O)c1cc(O)cc(O)c1C2=O | 50.12 | inhibitor, partial curve
C=CC(C1=CC(=O)C(OC)=CC1=O)c1ccc(OC)cc1 (stereo not drawn) | 63.1 | inhibitor, partial curve, poor fit
Cn1ccc2cc(NC(=O)Nc3cccnc3)ccc21 | 50.12 | inhibitor, partial curve
Cc1c(C)c2c(c(C)c1O)CCC(C)(CCCC(C)CCCC(C)CCCC(C)C)O2 (stereo not drawn) | 14.13 | inhibitor, partial curve
C/C=C1\C[C@H](C)[C@@](O)(CO)C(=O)OCC2=CCN3CC[C@@H](OC1=O)[C@@H]23 | 39.81 | inhibitor, partial curve, poor fit
Nc1ccc(S(=O)(=O)NC(=O)c2ccccc2)cc1 | 39.81 | inhibitor, partial curve, poor fit
C#CCCCCCCCCCCCC(O)CC(O)CO (stereo not drawn) | 25.12 | inhibitor, full curve, poor fit
Clc1ccc(CO[C@@H](Cn2ccnc2)c2ccc(Cl)cc2Cl)cc1 | 28.18 | inhibitor, partial curve
CC(C)NC[C@H](O)COc1ccc(CC(N)=O)cc1 | 39.81 | inhibitor, partial curve, poor fit
N[C@@]1(C(=O)O)CC[C@H](C(=O)O)C1 | 44.67 | inhibitor, partial curve
CC1=C(/C=C/C(C)=C/C=C/C(C)=C/C=C/C=C(C)/C=C/C=C(C)/C=C/C2=C(C)C(=O)CCC2(C)C)C(C)(C)CCC1=O | 79.43 | inhibitor, partial curve, poor fit
COc1cccc(-c2nc(N3CCN(C)CC3)c3ccccc3n2)c1 | 39.81 | inhibitor, partial curve, poor fit
Clc1ccc(COC(Cn2ccnc2)c2ccc(Cl)cc2Cl)c(Cl)c1 (stereo not drawn) | 28.18 | inhibitor, partial curve
COc1ccccc1-c1nc(NCc2cccnc2)c2ccccc2n1 | 39.81 | inhibitor, partial curve, poor fit
Cc1c(C)c2c(c(C)c1O)CCC(C)(CCCC(C)CCCC(C)CCCC(C)C)O2 (stereo not drawn) | 11.22 | inhibitor, full curve
CN(C)C(=O)c1ccc(-c2nc(Nc3ccc(F)cc3)c3ccccc3n2)cc1 | 56.23 | inhibitor, partial curve, poor fit
CN(C)c1cc2c(Nc3ccc4c(cnn4Cc4ccccc4)c3)ncnc2cn1 | 31.62 | inhibitor, full curve
CC(C)(C)c1ccc2c(S(=O)(=O)O)c(C(C)(C)C)ccc2c1 | 79.43 | inhibitor, partial curve, poor fit
CC1(C)CCC(C)(C)c2cc(C(=O)Nc3ccc(C(=O)O)cc3)ccc21 | 56.23 | inhibitor, partial curve, poor fit
CC[C@H](C)[C@H]1O[C@]2(CC[C@@H]1C)C[C@@H]1C[C@@H](C/C=C(\C)[C@H](O[C@@H]3C[C@H](OC)[C@H](O[C@@H]4C[C@H](OC)[C@@H](O)[C@H](C)O4)[C@H](C)O3)[C@@H](C)/C=C/C=C3\CO[C@@H]4[C@H](O)C(C)=C[C@@H](C(=O)O1)[C@]34O)O2 | 7.08 | inhibitor, full curve
COc1cccc(-c2cc(=O)c3ccc(OC)cc3o2)c1 | 25.12 | inhibitor, full curve
COP(=S)(OC)Oc1ccc([N+](=O)[O-])cc1 | 56.23 | inhibitor, partial curve, poor fit
CC[C@]1(O)CC(O[C@@H]2CC(N(C)C)C(O)C(C)O2)c2c(cc3c(c2O)C(=O)c2c(O)ccc(O)c2C3=O)C1C(=O)OC (stereo partly drawn) | 56.23 | inhibitor, partial curve
CC(C)(Cc1c[nH]c2ccc(Cl)cc12)NCCOc1ccccc1OCC1CC1 | 44.67 | inhibitor, partial curve
Cc1cccc(CN2CCN([C@@H](c3ccccc3)c3ccc(Cl)cc3)CC2)c1 | 31.62 | inhibitor, partial curve, poor fit
CCCC(=O)O[C@]1(C(=O)COC(C)=O)CC[C@H]2C3C[C@H](F)C4=CC(=O)C=CC4(C)[C@@]3(F)[C@@H](O)CC21C (stereo partly drawn) | 63.1 | inhibitor, partial curve, poor fit
CC1(C)O[C@H]2C[C@@H]3[C@H]4CCC5=CC(=O)CC[C@@]5(C)[C@]4(F)[C@@H](O)C[C@@]3(C)[C@@]2(C(=O)CCl)O1 | 4.467 | inhibitor, partial curve, poor fit

Once more, the final 4:

Compound,Potency (µM),curve as filed
CC(C)(Cc1c[nH]c2ccc(Cl)cc12)NCCOc1ccccc1OCC1CC1,44.67,"inhibitor, partial curve"
Cc1cccc(CN2CCN([C@@H](c3ccccc3)c3ccc(Cl)cc3)CC2)c1,31.62,"inhibitor, partial curve, poor fit"
CCCC(=O)O[C@]1(C(=O)COC(C)=O)CC[C@H]2C3C[C@H](F)C4=CC(=O)C=CC4(C)[C@@]3(F)[C@@H](O)CC21C (stereo partly drawn),63.1,"inhibitor, partial curve, poor fit"
CC1(C)O[C@H]2C[C@@H]3[C@H]4CCC5=CC(=O)CC[C@@]5(C)[C@]4(F)[C@@H](O)C[C@@]3(C)[C@@]2(C(=O)CCl)O1,4.467,"inhibitor, partial curve, poor fit"

From PubChem BioAssay record AID504865 (NCATS, 2011).